Primary screen of a compound library

Data taken from ChEMBL document CHEMBL3988442, “University of Dundee, Small-Polar-MMV Screening Library” (2021).

The filed quantity is “Percent Effect” (%). How 0% and 100% were set is not recorded. Most values in the screen are low, and negative values occur. The compounds are a random part of those screened. Two or more numbers in one place are separate tests of the same structure; such repeats can differ widely.

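Growth of Mycobacterium tuberculosis over 3 days (7H9 medium with glucose and tyloxapol); the read-out is not stated. Compounds at 50 µM. Direction is inferred from retests: higher values go with more growth inhibition. About 69,000 compounds were tested under these conditions; 1.1% (about 760) showed 50% or more at least once.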

O=C(O)C(F)(F)F.[H][C@@]12CN(S(C)(=O)=O)C[C@H](C(=O)Nc3cccnc3)[C@]1([H])CCO2 gave 13.89%.
CCOCCCn1c(NC(=O)c2cnc(C)cn2)nc2ccccc21 gave -22.09%.
COc1ccc(CC2(CO)CCN(c3cc(C(N)=O)ccn3)CC2)cc1 gave -1.599%.
CCNc1cc2c(nn1)CCN(C(=O)CCc1c(C)noc1C)C2 gave 2.792%.
Cc1onc(-c2ccncc2)c1C(=O)NC1CCCOC1 (configuration not stated) gave 1.472%.
Cc1ccnc(C(NC(=O)c2oc(C)nc2C)C2CC2)n1 (configuration not stated) gave 3.905%.
CC(C)Cn1cncc1CNC(=O)c1cccc(-n2cnnc2)c1 gave -17.08% and -2.551%.
O=C(NCCCn1nc2ccccn2c1=O)NCC(C1CC1)C1CC1 gave -25.69%.
CCc1nc(N2CCN(CCOC)CC2)c2cnn(C)c2n1 gave -2.997% and -31.8%.
Cc1cnn(-c2cccc(N3CCCC3)n2)c1 gave 37.79%.
CSc1ccccc1C(=O)Nc1ccc(OC2CCN(C)CC2)cc1 gave -13.86%.
COCCCC1(CO)CCCN(Cc2ccc(F)c(OC)c2)C1 (configuration not stated) gave -0.6783% and -15.97%.
CCn1nc2c(cc1=O)CN(CC(=O)Nc1nncs1)CC2 gave -10.06%.
Cc1ccccc1C1CCN(CCn2cc(-c3nccn3C)nn2)C1 (configuration not stated) gave 18.39%.
CCn1cc(CN2CCN(C(=O)c3cc(C)c(C)s3)CC2)c(C)n1 gave 6.822% and -7.376%.
COCCCN(C)c1nc(-c2ccncc2)nc(C)c1C gave 21.43% and 41.09%.
O=C([C@H]1CCCO1)N1CCN(Cc2cccnc2)c2ncccc2C1 gave -22.06%.
COc1ccc(CCNC(=O)CN2CCOCS2(=O)=O)cc1 gave -4.544%.
NCCn1cc(C(=O)N2CCNC(=O)C2c2cccc(F)c2)nn1 (configuration not stated) gave 0.8642% and -7.994%.
CCc1nc(C2CCCN(C(=O)c3ccc4c(c3)nnn4C)C2)no1 (configuration not stated) gave 13.76%.
CN(C)C(=O)c1ccc(OC2CCCC2)cc1 gave 8.175%.
CCC(N)c1ccccc1OCC(=O)N1CCCC1 (configuration not stated) gave -21.16%.
Cc1ccc(C(=O)NC(CN2CCCC2=O)c2ccccc2)c(=O)[nH]1 (configuration not stated) gave -0.3257% and -26.52%.
COc1cccc(CN(C)C(C)C(=O)Nc2nc(C)c(C)s2)c1 (configuration not stated) gave 10.05%.
CC1(C)CC(=O)N(CC(=O)Nc2ccon2)c2ccccc21 gave 23.68%.
Cc1cccc(NC(=O)[C@@H]2CCCN2Cc2nc3ccccc3o2)n1 gave 1.039%.
O=C(O)c1cccc(N2C[C@H](NC(=O)C3CCOCC3)[C@@H](C3CC3)C2)n1 gave 25.92%.
Cn1c(CS(=O)(=O)c2ccc(Cl)cc2)cc(=O)n(C)c1=O gave -14.79%.
Cn1nc(C(=O)NCc2ccccc2C(F)(F)F)c2c1CCS(=O)(=O)C2 gave -3.162%.
Fc1cnc(N2CCCC3(CN(Cc4ccncc4)CCO3)C2)nc1.O=C(O)C(F)(F)F.O=C(O)C(F)(F)F (configuration not stated) gave 14.4%.
COc1ccc(C)cc1NC(=O)Nc1cnc(N2CCN(C)CC2)nc1 gave 20.06%.
O=C(Cn1cc(-n2cccc2)cn1)NCC1CCC1 gave 25.75%.
COc1ncccc1CN1CCc2[nH]nc(C(=O)N(C)C)c2C1 gave -4.145%.

2 of the entries, repeated:

With Cc1ccnc(C(NC(=O)c2oc(C)nc2C)C2CC2)n1 (configuration not stated) the screen gave 3.905%.
With COCCCN(C)c1nc(-c2ccncc2)nc(C)c1C the screen gave 21.43% and 41.09%.